From doi:10.1101/2025.11.20.689626 come the findings set out here.

By UniProt entry, the sequences of proteins in these tests, tags left out. Where a name states a change or a piece, a line headed by the entry shows the natural chain unless it says otherwise.
UniProt O75417: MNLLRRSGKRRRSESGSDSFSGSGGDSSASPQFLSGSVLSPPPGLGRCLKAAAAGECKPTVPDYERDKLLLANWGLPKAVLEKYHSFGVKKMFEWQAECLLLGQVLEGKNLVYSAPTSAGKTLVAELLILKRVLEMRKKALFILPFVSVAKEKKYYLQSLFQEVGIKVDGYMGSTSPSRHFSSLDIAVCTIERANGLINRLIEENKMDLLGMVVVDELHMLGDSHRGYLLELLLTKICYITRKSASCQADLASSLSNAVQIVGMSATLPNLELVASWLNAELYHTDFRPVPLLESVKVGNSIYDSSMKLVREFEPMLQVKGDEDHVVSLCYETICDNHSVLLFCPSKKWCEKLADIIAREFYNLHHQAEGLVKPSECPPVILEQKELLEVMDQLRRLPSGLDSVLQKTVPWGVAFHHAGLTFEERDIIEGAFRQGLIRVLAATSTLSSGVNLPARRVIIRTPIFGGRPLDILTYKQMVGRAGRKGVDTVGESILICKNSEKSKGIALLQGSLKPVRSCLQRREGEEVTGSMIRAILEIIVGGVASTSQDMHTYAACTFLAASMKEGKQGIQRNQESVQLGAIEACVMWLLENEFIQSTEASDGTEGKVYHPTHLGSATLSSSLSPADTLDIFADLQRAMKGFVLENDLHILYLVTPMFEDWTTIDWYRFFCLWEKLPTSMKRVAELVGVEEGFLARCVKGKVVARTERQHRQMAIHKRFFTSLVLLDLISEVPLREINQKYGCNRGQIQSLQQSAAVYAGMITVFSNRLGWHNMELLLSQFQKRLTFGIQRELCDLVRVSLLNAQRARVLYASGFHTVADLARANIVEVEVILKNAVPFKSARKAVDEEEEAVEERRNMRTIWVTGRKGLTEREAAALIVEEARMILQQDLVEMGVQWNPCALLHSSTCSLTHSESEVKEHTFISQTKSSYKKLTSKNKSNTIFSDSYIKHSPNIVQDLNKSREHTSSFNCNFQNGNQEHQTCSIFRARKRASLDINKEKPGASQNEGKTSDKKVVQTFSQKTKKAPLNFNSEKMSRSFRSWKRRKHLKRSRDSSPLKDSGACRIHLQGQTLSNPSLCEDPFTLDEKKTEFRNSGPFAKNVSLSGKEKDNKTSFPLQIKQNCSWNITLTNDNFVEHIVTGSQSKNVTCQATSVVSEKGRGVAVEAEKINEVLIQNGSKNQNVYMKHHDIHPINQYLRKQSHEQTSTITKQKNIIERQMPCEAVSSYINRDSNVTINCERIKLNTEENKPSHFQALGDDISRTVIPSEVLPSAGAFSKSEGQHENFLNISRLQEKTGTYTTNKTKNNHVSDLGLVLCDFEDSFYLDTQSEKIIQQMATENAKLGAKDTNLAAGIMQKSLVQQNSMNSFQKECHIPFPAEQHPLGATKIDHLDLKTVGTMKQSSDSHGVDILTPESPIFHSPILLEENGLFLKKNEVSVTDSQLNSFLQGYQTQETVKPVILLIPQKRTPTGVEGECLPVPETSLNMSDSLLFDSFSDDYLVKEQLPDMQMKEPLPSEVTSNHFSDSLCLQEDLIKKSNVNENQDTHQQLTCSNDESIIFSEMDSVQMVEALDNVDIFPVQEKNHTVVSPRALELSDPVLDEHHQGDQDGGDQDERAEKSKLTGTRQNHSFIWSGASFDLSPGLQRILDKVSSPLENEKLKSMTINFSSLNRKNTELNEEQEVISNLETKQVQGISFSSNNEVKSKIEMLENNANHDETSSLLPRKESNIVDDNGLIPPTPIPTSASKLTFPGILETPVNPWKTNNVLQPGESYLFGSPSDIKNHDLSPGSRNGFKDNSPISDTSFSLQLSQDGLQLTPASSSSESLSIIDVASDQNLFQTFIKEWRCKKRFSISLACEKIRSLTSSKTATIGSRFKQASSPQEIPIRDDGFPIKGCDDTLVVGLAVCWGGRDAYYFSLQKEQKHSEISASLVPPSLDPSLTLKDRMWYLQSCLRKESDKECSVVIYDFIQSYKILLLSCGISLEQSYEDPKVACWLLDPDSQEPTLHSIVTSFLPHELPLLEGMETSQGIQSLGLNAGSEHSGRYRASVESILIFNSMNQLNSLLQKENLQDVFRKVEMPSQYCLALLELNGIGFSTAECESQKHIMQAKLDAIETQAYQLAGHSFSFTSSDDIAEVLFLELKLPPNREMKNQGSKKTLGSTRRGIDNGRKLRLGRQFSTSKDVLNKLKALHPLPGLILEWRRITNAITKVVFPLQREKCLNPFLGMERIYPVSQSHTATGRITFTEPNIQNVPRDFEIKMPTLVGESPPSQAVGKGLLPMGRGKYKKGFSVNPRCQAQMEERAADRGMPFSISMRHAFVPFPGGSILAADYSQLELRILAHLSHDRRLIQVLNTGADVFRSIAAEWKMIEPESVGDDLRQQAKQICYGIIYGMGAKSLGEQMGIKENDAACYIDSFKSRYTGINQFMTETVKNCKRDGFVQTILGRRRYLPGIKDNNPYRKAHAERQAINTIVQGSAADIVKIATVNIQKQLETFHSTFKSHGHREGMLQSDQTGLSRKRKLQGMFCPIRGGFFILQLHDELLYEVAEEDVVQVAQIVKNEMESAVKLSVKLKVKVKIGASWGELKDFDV
UniProt P54725: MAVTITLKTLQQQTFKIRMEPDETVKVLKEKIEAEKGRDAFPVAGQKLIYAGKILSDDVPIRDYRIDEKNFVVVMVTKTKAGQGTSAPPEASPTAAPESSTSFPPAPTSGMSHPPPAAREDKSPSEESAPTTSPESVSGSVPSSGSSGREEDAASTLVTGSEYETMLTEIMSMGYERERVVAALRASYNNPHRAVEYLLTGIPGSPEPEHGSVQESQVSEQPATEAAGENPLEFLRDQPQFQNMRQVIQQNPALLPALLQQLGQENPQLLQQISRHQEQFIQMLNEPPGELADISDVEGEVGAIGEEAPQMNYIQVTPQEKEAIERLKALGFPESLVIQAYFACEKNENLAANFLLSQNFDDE

Where two headings read alike, the source gives them in different places. These are yes or no findings as the source states them, for the method shown. In cells and extracts the contact can be indirect. Some results given as binding are weak or reduced against the parent protein; the word gives no strength.

What all share (test): co-IP
In assay [1] the target is POLQ of Fig. S4B (UniProt O75417).
Assay [2] has the same target. This is another data set of the same source.
Assay [3] deals with 3xFLAG-tagged full-length POLQ (UniProt O75417).
The target is the same in assay [4]. This is another data set of the same source.

Consider “RAD23A (endogenous) (from UniProt P54725 1-363)”, for which the binding result with POLQ of Fig. S4B [1] is recorded as “binds”; with POLQ of Fig. S4B [2], “binds weakly”.

For “V5-tagged RAD23A (from UniProt P54725 1-363)”, the binding entry in assay [3] is “binds”; in assay [4], “binds weakly”.
